Over roughly 33,000 sequences, “E-score (-0.5 to 0.5)” has its median near -0.0034; the highest 2% begin near 0.25. This is one part of the list.
biological target: T1, Yap3 (UniProt P38749); assay: PBM E-score (8-mer binding enrichment) (E-score (-0.5 to 0.5)); higher = stronger / more preferred TF binding; details: protein concentration: 100 nM; construct: GST-full length
T1 sequence: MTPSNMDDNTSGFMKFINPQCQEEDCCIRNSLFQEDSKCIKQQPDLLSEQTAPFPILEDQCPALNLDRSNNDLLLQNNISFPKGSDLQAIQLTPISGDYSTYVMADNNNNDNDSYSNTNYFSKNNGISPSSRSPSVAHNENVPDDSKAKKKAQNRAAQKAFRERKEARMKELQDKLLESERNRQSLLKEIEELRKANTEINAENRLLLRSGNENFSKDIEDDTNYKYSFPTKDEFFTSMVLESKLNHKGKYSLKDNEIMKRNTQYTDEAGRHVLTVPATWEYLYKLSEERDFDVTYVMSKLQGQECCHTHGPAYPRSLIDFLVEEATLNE
Procedure, shortened: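 Universal all-10-mer Agilent arrays, double-stranded by primer extension on fresh or once-stripped slides, were probed with about 100-200 nM GST-tagged yeast transcription factors made by PURExpress. Fluorescent anti-GST detected bound protein, and masliner normalised the scans. E-scores from the Universal PBM Analysis Suite were given to each ungapped eight-base word pooled with its reverse complement.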

Sequence	PBM E-score
CTTGACGA	-0.192
AAAGTATG	0.132
ACGTGGTA	0.0347
CAAAAAAG	0.147
AATAATAG	0.2
CTCGCAAC	0.0518
GCCTACGC	-0.1
CATCGCGC	-0.0016
GCCTAGAC	-0.206
CAGTATAA	0.249
AAACAGTC	-0.104
AGCGAATC	-0.0364
GATACTCC	-0.014
ACATTGCC	-0.0211
CGGGAGAG	-0.0876
TCGTTTCA	0.136
CGAGTCGA	0.022
ACTGGATA	0.248
CTTGCTAC	-0.0936
ATGTAGGG	-0.114
ACACTTAA	0.133
AACCCCGT	-0.0745
TCTGCTAA	0.0116
ATTAATCC	0.0925
CCCACGCA	-0.00735

Sequence	PBM E-score
ACGTGGTC	-0.135
AGTTAATG	0.16
CCGCGACA	0.0599
ATTACCCC	-0.0176
GCAATCAA	0.178
TACAATGA	0.149
GGTGAGGA	-0.0317
CTAAATAA	0.155
CGGTCATA	0.119
AAGCACGT	0.137
TAGCAAGA	0.0496
GCTACTAC	0.255
ATTTGGAC	0.0526
AACATTCT	0.128
CTGGACAC	-0.158
AACTCGTG	0.125
AAACTGTT	0.117
CAGAAGAA	-0.155
ATGCGGCG	0.098
AATCCAGA	0.138
GTCCTGAA	-0.2
CTATTCCA	0.214
TCGGACGA	0.0215
ACTAAAAT	0.211
AGCAACTG	0.0754

Sequence	PBM E-score
GCGGGGTA	0.0182
AATCGCCC	-0.258
AGGATCAT	-0.0017
AGCCCGGG	-0.299
GAAGCCAA	-0.00454
AGAACTAC	0.0198
CACCGCTG	-0.222
ACCCGCTC	-0.269
GAATGCAC	0.0837
CACAAGAG	0.0322
ATGGATCG	-0.0129
GCTGCTCA	-0.135
CGCAAAGA	0.0887
ATTAATGC	0.216
GGCACTCA	-0.178
ATAGGGAA	-0.0165
CGACAAGA	0.077
ATCCTTCC	-0.188
CTCACTCA	0.0521
TGCGCGCA	0.0889
CAGCATGC	-0.00421
ATGGCTCG	0.00097
AATGGCAA	0.0484
AGACGCTA	-0.13
CCCGGAAG	-0.193

Sequence	PBM E-score
CCCGCCTC	-0.0693
CCGGACAG	0.0448
CATAGAGA	0.102
CAATTACA	0.221
ACCACCGC	-0.161
AATGACAC	0.195
CCTAGCAC	-0.159
GGTAGGAC	-0.225
AGGTCACG	-0.185
ATAGCGGC	-0.0582
ATATTAGC	0.177
CCAGATGG	-0.251
CCATCTAC	0.0346
CTCGACGC	0.0226
TAAGATTA	0.185
ACTATAGC	-0.117
CTGTACAC	0.0466
ACGTTCAC	0.0834
CGGAAATC	0.12
CATCGTGA	-0.283
ATAGTGGA	0.0987
CGTTCGTC	0.0566
CTGTGAAC	-0.1
CTTTAGCC	-0.0274
GGCCCCTA	-0.332

Taken from above:
Value of CCATCTAC under PBM E-score: 0.0346
Value of CTTTAGCC under PBM E-score: -0.0274

(next part)

Sequence	PBM E-score
CCCTTATC	-0.108
TAGGTCGA	0.12
GACAACGA	0.133
ATCAATAC	0.11
GAGATGCC	-0.0438
ACTCACTA	0.103
ATCGGCAG	-0.0334
ATACAACA	0.149
GTAGGCTA	-0.137
AGAGCTCC	-0.275
ACAAACGG	0.0995
ACCAACGT	0.0635
CGTGAAGC	-0.116
TGAGGAAA	0.0752
AAGCGCGT	0.138
ACATTCGC	-0.0124
AAGAGTAG	-0.0109
AAGTGGGT	0.0584
ACCGGTCT	-0.27
AGTTTCAG	-0.0512
AAGGACGC	-0.033
ATGAAAAA	0.278
CAGTTAAG	0.159
CCGGACCC	-0.278
ACGGCTAC	0.0443

A section taken from the entries so far:
Sequence	PBM E-score
TCGTTTCA	0.136
CGAGTCGA	0.022
ACTGGATA	0.248

Going on with the list.

Sequence	PBM E-score
TGCTATAA	0.0392
AATAAATT	0.186
ACATGCGC	0.126
AAGGGGAC	-0.164
ATCTACAA	0.0239
ACGCGCTC	-0.122
GTAATCTA	0.319
CACCATGG	-0.217
CCCTGTCG	-0.125
ATCAGGTA	0.0409
AGCCTAAA	0.0279
CACATGCA	0.0846
AAGTGGAC	-0.033
ATAGTGAG	0.0924
ATAGAGAC	0.0837
ATACAGAC	0.14
GTAAGTAA	0.183
CGAGTAGC	-0.0161
GTAGATCA	0.0396
GAGATAAC	0.145
ACTTAACC	0.0147
GAGCTCCC	-0.266
ATCAGGAG	-0.00138
AGCGCCAC	-0.208
AAAAGATC	0.0425

Sequence	PBM E-score
TGAAGTAA	0.0993
TACCTGGA	0.0806
CTTATTCC	0.109
AGCTTCAC	-0.0982
CGGCGACC	-0.246
AGGATTAG	0.00983
AAGGTGCG	-0.131
GCTGTACC	-0.157
CCGGGACA	0.0188
GGTCGTAA	0.0204
ACTCTCTG	0.051
ATTTGTTC	0.321
CGCACGCC	-0.0748
CGGAATGC	0.0497
ACGTCACG	0.0608
AATGGCCC	-0.282
AGCTTACC	0.048
CCATCATA	0.083
GAGGTGAC	0.0812
GAGTGTCC	-0.0229
AATAACCT	0.139
AGGCATAC	0.09
